Some of these results come from one statement about several compounds together. Some ranges recur; such a range may be that of the whole group of compounds.
Test: Production of concentrated Yucca shidegera saponin emulsions in water (content reached)
Type: physicochemical
Conditions: stable saponin emulsion in water, two step mixing
Protocol: The concentrated emulsions readily re-disperse upon dilution in water to working concentrations of interest. The final concentration of saponin with respect to the organic molecule is easily obtainable at 1:50 or 1:100 w/w, or even less. The shelf life of the concentrated emulsions, either at room temperature (about 25° C.) or at refrigerator temperature (about 4° C.) is at least 1 year, although separation of an emulsion, once stably formed, has not been observed.
mulsions of some aqueous-recalcitrant compounds were prepared in water using Yucca shidegera extracts containing about 12-14% saponin, as an emulsifying agent. The saponin preparations were obtained from Danco Natural Products, Pine Valley, Calif., and are sold under the trade names Pure Yucca (about 7-14% saponin and Yucca Ultra (about 10-11% saponin). These preparations had been filtered by the supplier to remove any fibers which could interfere with the emulsification process. The components were combined as follows, using D-limonene as an example.
D-limonene (B. F. Goodrich/Kalama Chemicals, Kalama, Wash.) in the amount of 50 grams was added directly to a clean glass container. To this, 1.6 grams of yucca saponin was added. The glass container was covered tightly and agitated vigorously. A poor, partially opaque solution resulted. […]

SMILES	concentration of organic compound in the emulsion
O=CC=Cc1ccccc1 [cinnamaldehyde]	80-90 % by weight
C=C(C)[C@H]1CC=C(C)CC1 [d-limonene, D-limonene]	80-90 % by weight
